Numbering of substitutions follows the chain as printed. In names and notes the source's numbering stands. Where two headings read alike, the source gives them in different places. These are yes or no findings as the source states them, for the method shown. Some entries that bind do so weakly or less than the wild type. Each block holds one binder with its values, some of them ahead of it.
What was measured:
[1] = target: T1, ROOTY (RTY) protein, wild type, C-S lyase (Arabidopsis thaliana) (UniProt Q9SIV0); test: two-hybrid
T1 sequence: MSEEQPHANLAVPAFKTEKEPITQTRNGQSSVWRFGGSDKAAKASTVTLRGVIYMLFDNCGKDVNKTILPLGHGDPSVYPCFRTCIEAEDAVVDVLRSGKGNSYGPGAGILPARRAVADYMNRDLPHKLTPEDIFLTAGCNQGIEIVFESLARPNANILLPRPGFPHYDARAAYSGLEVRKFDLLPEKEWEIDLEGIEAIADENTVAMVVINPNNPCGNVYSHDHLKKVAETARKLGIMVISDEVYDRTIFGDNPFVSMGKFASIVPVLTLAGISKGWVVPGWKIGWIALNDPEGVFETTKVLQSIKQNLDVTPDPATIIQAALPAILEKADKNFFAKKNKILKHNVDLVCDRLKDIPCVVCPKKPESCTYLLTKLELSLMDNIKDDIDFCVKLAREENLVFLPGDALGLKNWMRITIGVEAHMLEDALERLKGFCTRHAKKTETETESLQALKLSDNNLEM

[2] = target: T1, ROOTY (RTY) protein, wild type, C-S lyase (Arabidopsis thaliana); test: two-hybrid; remark: listed apart in the source

binding [1]: binds | binding [2]: binds
B1: ROOTY (RTY) protein, wild type, C-S lyase (enzyme, UniProt Q9SIV0 1-462)
chain: T1 sequence

binding [2]: binds
B2: ROOTY (RTY) protein, D315N mutant (TG8B allele) (enzyme, Arabidopsis thaliana, UniProt Q9SIV0 1-462, looked up)
chain: T1 sequence with D315N
